Experimental findings from PubChem BioAssay AID1487 (National Center for Advancing Translational Sciences (NCATS), 2009) are described below.

The other results are listed elsewhere or left out. These are further read-outs of the screen, such as a control signal, another cell line or another target. No call is given for them. Most of these compounds were active or inconclusive in the main read-out, so they are no random draw. Potencies come from curve fits of mixed quality, noted in brackets.

The assay in a line: qHTS Assay for Modulators of Lamin A Splicing. To be noted: HeLa LMNA splicing GFP/RFP minigene ratio, 48 h. In short, it runs like this:
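Read-out is the ratio of GFP to DsRed2 object intensity, acquired by 488 nm laser-scanning cytometry on HeLa lamin A-EGFP minigene reporter cells. Compound incubation 48 hrs at 37 °C in Opti-MEM with 2% FBS; DMSO 0.5% final.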
A general note: In qHTS, concentration-response curves come from the screen itself.

The mark [1] stands for this setting: measured here: GFP splicing reporter channel.
[2] abbreviates: measured here: RFP viability control channel.

As for `COc1cc(/C=C/C(=O)OC(C)C(=O)Nc2c(C)n(C)n(-c3ccccc3)c2=O)ccc1OCC#N` (stereo unspecified), the AC50 (commonly the midpoint of the concentration-response curve, whichever way the signal moves) is 10 µM [falling, partial curve, poor fit] under setting [1] and 7.08 µM [falling, full curve] under setting [2].
As to `C/C(N)=C(/C#N)C(=O)CSc1nnc(SCc2ccc(Cl)cc2)s1`, the AC50 reads like this: under setting [1], 31.6 µM [rising, single point]; under setting [2], 31.6 µM [rising, single point].
Take `COc1ccc2[nH]cc(CCNc3nc(-c4ccc(C(=O)N(C)C)cc4)nc4ccccc34)c2c1`: the AC50 is 10 µM [falling, partial curve] under setting [1] and 11.2 µM [falling, partial curve] under setting [2].
Take `CN(C)[C@H]1C(=O)C(C(=O)NCN2CCCC2)=C(O)[C@]2(O)C(=O)C3=C(O)c4c(O)cccc4[C@](C)(O)[C@H]3C[C@H]12`: the AC50 under setting [1] was 0.0355 µM [rising, full curve, poor fit].
In the case of `Cc1nc2ccccc2nc(C)c1=NOCc1ccc(Cl)cc1Cl`, the AC50 by setting is: under setting [1], 35.5 µM [rising, single point]; under setting [2], 25.1 µM [rising, partial curve].
Take `O=C(OCC1CC(c2ccccc2)=NO1)c1ccc(Br)cc1` (stereo unspecified): the AC50 under setting [2] is 0.00891 µM [rising, full curve, poor fit].
Regarding `C/C(CCC(=O)OC[C@H]1O[C@H](C#Cc2ccccc2)C=C[C@@H]1Oc1ccc(C)cc1)=N\OC[C@@H](O)[C@H]1O[C@@H]2OC(C)(C)O[C@@H]2[C@H]1O`, the AC50 is, setting by setting: under setting [1], 10 µM [rising, partial curve, poor fit]; under setting [2], 12.6 µM [rising, partial curve].
On to `O=C(NCC(=O)N(Cc1ccc(F)cc1)C(C(=O)NC1CCCC1)c1ccco1)c1ccco1` (stereo unspecified), for which, under setting [1], the AC50 was 31.6 µM [rising, single point].
Take `COc1cccc(C2c3c(oc4ccc(Cl)cc4c3=O)C(=O)N2c2cc(C)on2)c1OC` (stereo unspecified): under setting [1], the AC50 is 2 µM [rising, partial curve, poor fit].
For `CC(=O)N(C)c1ccc(NC(=O)COc2ccc(Br)cc2C)cc1`, the AC50 by setting is: under setting [1], 10 µM [rising, partial curve]; under setting [2], 15.8 µM [rising, single point].
Take `C=C(C)CNC(=S)N=Nc1c(O)[nH]c2ccc([N+](=O)[O-])cc12`: the half-maximal activity concentration (AC50) under setting [1] was 28.2 µM [rising, single point].
`CC(NC(=O)CCCC1=NS(=O)(=O)c2ccccc2N1)c1ccccc1` (stereo unspecified): the AC50 under setting [1] is 20 µM [rising, partial curve, poor fit].
As to `c1ccc(-c2csc(N3CCN(c4ccccn4)CC3)n2)cc1`, the AC50 is 15.8 µM [rising, partial curve, poor fit] under setting [1] and 35.5 µM [rising, single point] under setting [2].
In the case of `CCN(CC)c1nc2c3c(nc4c(c3c1C#N)CC(=O)N4c1ccc(Cl)cc1)NC(C)=N2`, the AC50 under setting [2] was 17.8 µM [rising, partial curve].
`O=C(N/N=C\c1c(O)ccc2ccccc12)c1ccc(Cn2cccn2)o1`: the AC50 was 8.91 µM [rising, partial curve] under setting [1] and 10 µM [rising, partial curve] under setting [2].
Consider `O=C(/C=C/c1c(F)cccc1Cl)Nc1nn[nH]n1`, for which the AC50 under setting [1] is 0.00501 µM [rising, full curve].
Regarding `COCCCNC(=S)N/N=C/c1ccccc1O`, the AC50 under setting [1] was 0.158 µM [falling, full curve].
Consider `O=C(CCc1nc(-c2cccs2)no1)Nc1ccccc1[N+](=O)[O-]`, for which, under setting [2], the AC50 is 0.00447 µM [falling, full curve, poor fit].
On to `CC(C)Oc1ccc2c(=O)cc(-c3ccccc3)oc2c1`, for which the AC50 under setting [1] is 10 µM [falling, single point].
In the case of `CCOC(=O)N1CCc2[nH]c3ccc(C)cc3c2C1`, under setting [2], the AC50 is 0.316 µM [rising, full curve, poor fit].
For the compound `Cc1ccc2nc(NC(=O)CSc3nccn3Cc3ccc(Cl)cc3)sc2c1`, under setting [2], the AC50 was 0.0891 µM [falling, full curve].
For `O=C(N/N=C/c1sc(=O)n(-c2ccccc2)c1Cl)c1ccncc1`, the AC50 by setting is: under setting [1], 12.6 µM [falling, partial curve]; under setting [2], 15.8 µM [falling, partial curve, poor fit].
As for `CCc1cccc(C)c1NC(=O)c1cc(S(=O)(=O)N2CCOCC2)cn1C`, the AC50 under setting [2] was 35.5 µM [rising, single point].
With `O=C(NCc1ccc(C(F)(F)F)cc1)C1CC(c2c(Cl)cccc2Cl)=NO1` (stereo unspecified), the AC50 under setting [1] is 17.8 µM [rising, single point].
Turning to `CCn1nnc(-c2ccccc2NS(=O)(=O)c2ccc(S(=O)(=O)N3CCCCCC3)cc2)n1`, the concentration at half-maximal activity (AC50) is 0.0355 µM [rising, full curve, poor fit] under setting [1] and 31.6 µM [rising, single point] under setting [2].
As to `COC(=O)c1ccccc1NC(=S)NC(C)=O`, the AC50 under setting [2] was 0.0562 µM [falling, full curve, poor fit].
Still for that read-out and setting: the same measure for `O=C(NC(=S)Nc1ccc(Oc2ccccc2)cc1)c1ccc(Cl)cc1`: 17.8 µM [rising, single point].
As to `Cc1cc(OCCn2cnc3ccccc3c2=O)cc(C(C)C)c1`, the AC50 was 14.1 µM [rising, single point] under setting [1] and 22.4 µM [rising, single point] under setting [2].
As to `CC(=C/c1ccc(C(C)C)cc1)/C=N/NC(=O)c1ccncc1`, under setting [2], the AC50 was 10 µM [rising, partial curve].
In the case of `O=c1[nH]c(SCc2c(Cl)cccc2Cl)nc2ccccc12`, the AC50 under setting [2] is 2.82 µM [rising, single point].
As for `COc1ccccc1NS(=O)(=O)c1cc(N2Cc3ccccc3C2=N)ccc1N1CCOCC1`, the AC50 under setting [2] was 1.41 µM [rising, partial curve].
As to `O=C1C(Cl)=C(Nc2cccc(O)c2)C(=O)N1Cc1ccccc1`, the AC50 under setting [2] was 14.1 µM [rising, partial curve].
For `CC(=O)N1N=C(c2ccc(Br)cc2)CC1c1cn(C)c2ccccc12` (stereo unspecified), the AC50 runs as follows: under setting [1], 22.4 µM [rising, single point]; under setting [2], 22.4 µM [rising, single point].
Take `O=c1[nH]c(CSc2nnc(Nc3ccccc3)s2)nc2ccccc12`: the AC50 under setting [2] is 0.0501 µM [falling, partial curve, poor fit].
`O=C(NCCCN1CCOCC1)c1ccc(Cl)cc1[N+](=O)[O-]`: the AC50 under setting [2] was 5.62 µM [falling, partial curve, poor fit].
As for `CCOc1ccc2c(c1)C(c1ccc(C)cc1)=NNC(c1ccc(C)cc1)=N2`, under setting [2], the AC50 was 14.1 µM [rising, partial curve, poor fit].
Consider `COc1cc2c(cc1OC)C1=C(C#N)CCC(=NC(=O)c3ccco3)N1CC2`, for which the AC50 is 7.94 µM [rising, partial curve, poor fit] under setting [1] and 0.00282 µM [rising, full curve, poor fit] under setting [2].
As to `COc1ccc(OC)c(-c2cc(C(=O)Nc3c(C)nn(Cc4ccccc4)c3C)no2)c1`, the concentration at half-maximal activity (AC50) runs as follows: under setting [1], 11.2 µM [rising, partial curve]; under setting [2], 12.6 µM [rising, single point].
As to `CN(C)c1ccc(-c2nc(N3CCNCC3)c3ccccc3n2)cc1`, the AC50 is, setting by setting: under setting [1], 20 µM [falling, single point]; under setting [2], 31.6 µM [rising, single point].
Consider `Cc1cc(Cl)ccc1OCC(=O)N1CCCCC1`, for which the AC50 runs as follows: under setting [1], 22.4 µM [falling, single point]; under setting [2], 22.4 µM [falling, single point].
Regarding `CCN(CC)S(=O)(=O)c1ccc(NC(=O)COC(=O)CNS(=O)(=O)/C=C/c2ccccc2)cc1`, the AC50 under setting [2] was 0.00891 µM [rising, full curve, poor fit].
In the case of `O=C(NC(=S)N1CCN(c2ccc([N+](=O)[O-])cc2)CC1)c1ccccc1F`, the AC50 reads like this: under setting [1], 22.4 µM [rising, single point]; under setting [2], 35.5 µM [rising, single point].
As to `S=C(NCC1CCCO1)Nc1cccc(Cl)c1` (stereo unspecified), the AC50 under setting [1] is 39.8 µM [falling, partial curve, poor fit].
Take `CCCn1c(=N)c(C(=O)NC2CCCC2)cc2c(=O)n3cccc(C)c3nc21`: the AC50 under setting [2] was 17.8 µM [rising, single point].
Consider `Cn1c(=O)oc2cc(S(=O)(=O)NCCC(=O)Nc3ccc4c(c3)OCCO4)ccc21`, for which the AC50 under setting [1] is 1.41 µM [falling, single point].
With `COc1cc(S(=O)(=O)N2CCN(c3ccccc3F)CC2)c(OC)cc1Cl`, the AC50 runs as follows: under setting [1], 15.8 µM [rising, single point]; under setting [2], 20 µM [rising, partial curve].
In the case of `Cc1[nH]n(-c2ccccc2)c(=O)c1N=Nc1ccccc1O`, the AC50 is 8.91 µM [falling, partial curve] under setting [1] and 0.631 µM [falling, single point] under setting [2].
Consider `CC(C)(C)NC(=O)C(c1ccncc1)N(C(=O)C1CSC(=O)C1)c1ccccc1` (stereo unspecified), for which the AC50 was 6.31 µM [falling, partial curve] under setting [1] and 3.16 µM [falling, full curve] under setting [2].
`COc1cc2c3nnc(-c4ccc(F)cc4)c-3cn(Cc3ccccc3F)c2cc1OC`: the AC50 under setting [1] is 0.00891 µM [rising, full curve, poor fit].
In the case of `Cc1nnc(N(C)C(=O)c2ccc3c(c2)OCO3)s1`, the AC50 under setting [1] is 25.1 µM [falling, partial curve, poor fit].
With `CCCS(=O)(=O)Nc1c(C(=O)OC)[nH]c2ccccc12`, the AC50 under setting [2] was 11.2 µM [rising, partial curve].
As for `Cc1ccc(C23CC4CC(CC(CC(=O)N5CCOCC5)(C4)C2)C3)cc1`, the AC50 is 35.5 µM [rising, single point] under setting [1] and 35.5 µM [rising, single point] under setting [2].
Turning to `Nc1ccc(C(=O)OCc2nc3c(ccc4ccccc43)[nH]2)cc1`, the AC50 under setting [2] was 14.1 µM [rising, single point].
Turning to `C[C@H](CO)NC(=O)[C@H](C)[C@@H]1C[C@@]1(C)[C@@H](NC(=O)OCc1ccccc1)c1ccccc1`, the AC50 under setting [1] is 12.6 µM [rising, single point] and the AC50 under setting [2] was 17.8 µM [rising, partial curve, poor fit].
